# The whole screen tested about 2,100 compounds, of which about 590 (28%) were called active. Inconclusive means that the source gave no clear call. Such entries were picked first, then a sample of the others. Calls come from the whole dose curve; as a rule, active = well fitted inhibition curve with a large enough effect; inconclusive = small, poorly fitted or top-dose-only effect; inactive = flat fitted curve, though single readings scatter. Potencies beside an inconclusive call are fits to weak or partial responses and may not hold up.
# Sequences of proteins named here, by UniProt entry; tags and fusion partners are left off. A change or cut given only in a name is not applied to a line headed by its entry.
# UniProt Q8IUX4: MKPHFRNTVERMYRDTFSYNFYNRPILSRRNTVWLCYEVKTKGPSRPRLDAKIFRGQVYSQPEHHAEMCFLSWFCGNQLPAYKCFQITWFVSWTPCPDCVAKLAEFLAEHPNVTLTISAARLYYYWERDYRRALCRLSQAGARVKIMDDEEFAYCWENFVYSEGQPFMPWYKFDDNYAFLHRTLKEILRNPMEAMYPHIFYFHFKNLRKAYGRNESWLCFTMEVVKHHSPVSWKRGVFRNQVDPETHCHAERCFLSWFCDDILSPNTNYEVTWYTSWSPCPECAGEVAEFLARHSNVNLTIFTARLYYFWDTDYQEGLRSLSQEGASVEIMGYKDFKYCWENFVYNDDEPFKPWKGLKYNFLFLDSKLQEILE
# Molecular target: DNA dC->dU-editing enzyme APOBEC-3F (Homo sapiens) (UniProt Q8IUX4)
# Assay: qHTS for inhibitors of Vif-A3F interactions: Cherry picks; note: nearly all actives have a fitted effect of over 70% in size;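 for max response: % of control where 0% means no effect; active compounds raise eYFP fluorescence by blocking Vif-driven A3F loss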
# Details: HeLa A3F-eYFP + Vif (tagged APOBEC3F with the HIV-1 protein that degrades it), eYFP fluorescence, 24 h
# Method in brief: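 Read-out: yellow fluorescence (ex 488 nm, em 500-530 nm) by laser-scanning cytometer after 24 h compound exposure, several concentrations, at 37 deg C. Cells: HeLa line stably co-expressing Vif and C-terminally eYFP-tagged A3F; MG132 served as positive control.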
# Potency is the fitted concentration of half-maximal effect.
SMILES,max response,Potency
CCC(=O)NC(=S)Nc1cccc(Cl)c1N1CCCC1,inactive: -0.93%,–
CCCOc1ccccc1C1CC(=O)NC2=C1C(=O)CCC2 (stereo not drawn),–,"inconclusive: 3.96 µM [inhibitor, full curve]"
CCn1c(CNC(=O)C23CC4CC(CC(C4)C2)C3)nnc1SCC(=O)Nc1ccc(OC)cc1,inactive: 6.03%,–
CCN(CC)c1ccc(/C=c2/sc3nnc(-c4ccccc4C)n3c2=O)cc1,–,"inconclusive: 23.1 µM [inhibitor, single point]"
CCOc1cc(/C=C2\N=C(SC(C)C(N)=O)N(c3ccc(OC(F)F)cc3)C2=O)ccc1O (stereo not drawn),–,active: 15.8 µM
Oc1sc(C=Nc2ccccc2)c2ccccc12,–,active: 20.6 µM
Cc1cc2nc(-c3ccc(SCC(=O)Nc4ccc(S(=O)(=O)N5CCCC5)cc4)nc3)[nH]c2cc1C,–,"inconclusive: 23.1 µM [inhibitor, single point]"
COc1ccccc1Nc1c2c(nc3ccc(NC(=O)c4ccc(N(C)C)cc4)cc13)CCCC2,–,"inconclusive: 29.1 µM [inhibitor, single point]"
c1ccc(-c2cccc(-c3ccccn3)n2)nc1,–,"inconclusive: 12.5 µM [inhibitor, partial curve]"
COc1ccccc1C(=O)Nc1ccc2c(c1)CN(C(=O)CSC)CC2,–,"inconclusive: 15.8 µM [inhibitor, single point]"
CN(C)c1ccc2nc3c(=O)[nH]c(=O)nc-3n(CC(O)C(O)C(O)CO)c2c1 (stereo not drawn),inactive: -2.88%,–
N#CC1=C(S)N(c2ccc(F)cc2)C2(CCCCC2)NC1=O,inactive: 2.73%,–
CC(=O)Nc1cccc(-c2ccnc3c2CC(C(=O)NCc2cccs2)O3)c1 (stereo not drawn),–,"inconclusive: 1.77 µM [inhibitor, full curve]"
CCc1ccc(C(=O)/C=C/c2ccc([N+](=O)[O-])o2)cc1,–,"inconclusive: 17.7 µM [inhibitor, single point]"
O=C(COC(=O)c1ccc(NS(=O)(=O)c2cccs2)cc1O)NCc1ccccc1,–,"inconclusive: 1.98 µM [inhibitor, full curve]"
COC(=O)c1sccc1S(=O)(=O)N(CC(=O)Nc1cc(F)ccc1F)c1ccc(C)c(C)c1,inactive: 4.72%,–
Cc1sc2ncnc(SCC(=O)NC(C)(C)C)c2c1C,inactive: 0.663%,–
O=C1COc2ccc(C(=O)CSc3nc4ccccc4c(=O)n3-c3ccc(Cl)c(Cl)c3)cc2N1,–,active: 18.4 µM
O=C(NC12CC3CC(CC(C3)C1)C2)c1ccc([N+](=O)[O-])o1,–,"inconclusive: 14 µM [inhibitor, single point]"
CC(=O)Nc1ccc(S(=O)(=O)Nc2nc3ccccc3nc2Sc2nncn2C)cc1,inactive: -12.8%,–
COc1ccc(NC(=O)C2Cc3c(-c4ccc(NC(C)=O)cc4)ccnc3O2)cn1 (stereo not drawn),inactive: -27.7%,–
COc1cccc2sc(Nc3nc(-c4cc5ccccc5oc4=O)cs3)nc12,–,"inconclusive: 4.44 µM [inhibitor, full curve]"
S=C(NC1CCCCC1)N(CCc1ccccc1)CCc1ccccc1,inactive: -2.16%,–

# In the list so far, five have an aryl methoxy group.
SMILES,max response,Potency
CCn1c(CNC(=O)C23CC4CC(CC(C4)C2)C3)nnc1SCC(=O)Nc1ccc(OC)cc1,inactive: 6.03%,–
COc1ccccc1Nc1c2c(nc3ccc(NC(=O)c4ccc(N(C)C)cc4)cc13)CCCC2,–,"inconclusive: 29.1 µM [inhibitor, single point]"
COc1ccccc1C(=O)Nc1ccc2c(c1)CN(C(=O)CSC)CC2,–,"inconclusive: 15.8 µM [inhibitor, single point]"
COc1ccc(NC(=O)C2Cc3c(-c4ccc(NC(C)=O)cc4)ccnc3O2)cn1 (stereo not drawn),inactive: -27.7%,–
COc1cccc2sc(Nc3nc(-c4cc5ccccc5oc4=O)cs3)nc12,–,"inconclusive: 4.44 µM [inhibitor, full curve]"

# The listing continues:

SMILES,max response,Potency
COc1ccc2nc3ccccc3nc2c1NC(=O)c1ccc(Br)cc1,–,active: 18.4 µM
COc1cc(OC)cc(C(=O)Nc2ccc(N3CCN(C(=O)c4cccs4)CC3)cc2)c1,inactive: -11.5%,–
CN(C)/C=N/C1=C(C#N)C(c2cccs2)c2ccc3ccccc3c2O1 (stereo not drawn),–,"inconclusive: 3.96 µM [inhibitor, full curve]"
CC1Cc2cc(S(=O)(=O)CCC(=O)NCc3ccc(Cl)cc3)ccc2N1C(=O)C1CC1 (stereo not drawn),inactive: -29.5%,–
O=C(N/N=C/c1ccc2c(c1)OCO2)c1cc(-c2ccncc2)nc2ccccc12,–,"inconclusive: 1.98 µM [inhibitor, full curve]"
COc1ccc2nc(N3C(=O)/C(=C/c4ccccc4)NC3=S)sc2c1,–,"inconclusive: 6.51 µM [inhibitor, full curve]"
CCOc1cc(-c2nnc(SCC(=O)NCc3ccccc3)nc2-c2ccc(OC)c(OCC)c2)ccc1OC,–,"inconclusive: 3.26 µM [inhibitor, full curve]"
CCOc1ccc(C(C)=O)cc1COc1cccnc1[N+](=O)[O-],–,"inconclusive: 5.59 µM [inhibitor, partial curve]"
CC(=O)C1=C(C)NC(SCC(=O)c2ccc(Cl)cc2)=C(C#N)C1c1ccco1 (stereo not drawn),–,"inconclusive: 23.1 µM [inhibitor, single point]"
COc1ccc(Nc2nc3cc(C)ccc3cc2C#N)c(OC)c1,–,"inconclusive: 2.23 µM [inhibitor, partial curve]"
O=C1CC(c2ccccc2F)c2cc3c(cc2N1)CCC3 (stereo not drawn),–,"inconclusive: 2.23 µM [inhibitor, full curve, poor fit]"
COc1ccc(OC)c(Nc2ncnc3c2cnn3-c2cccc(Cl)c2)c1,–,"inconclusive: 6.51 µM [inhibitor, full curve]"
O=c1c[n+]([O-])c2ccccc2n1OCc1c(F)cccc1F,–,"inconclusive: 17.7 µM [inhibitor, partial curve]"
Cc1[nH]c2ccccc2c1/C=N/Nc1ccc([N+](=O)[O-])cc1,–,active: 18.4 µM
CC(=O)c1cccc(-c2ccnc3c2CC(C(=O)Nc2ccc(Cl)cc2)O3)c1 (stereo not drawn),inactive: -28.2%,–
COc1ccc(OC)c(NC(=O)c2sc3nc(Cc4ccccc4)cc(C(F)(F)F)c3c2N)c1,–,active: 8.2 µM
COC(=O)c1sc(NC(=O)c2ccc([N+](=O)[O-])o2)c(C#N)c1C,inactive: -29.9%,–
O=C(N/N=C/c1ccc([N+](=O)[O-])o1)c1cn2ccc3ccccc3c2n1,inactive: -11.2%,–
CO/N=C\CC(=O)Nc1ccc(Oc2ccccc2)cc1,–,"inconclusive: 1.77 µM [inhibitor, full curve, poor fit]"
Cn1c(=O)c2cc(NC(=O)Cc3cccc4ccccc34)ccc2n1-c1ccccc1,–,"inconclusive: 7.04 µM [inhibitor, partial curve]"
Cc1cc(-c2nc(C)c(C(=O)NN)s2)no1,inactive: -13.4%,–
CCOC(=O)c1[nH]c(C)c(C(=O)Nc2ccccc2F)c1C,–,"inconclusive: 3.96 µM [inhibitor, partial curve]"
COc1ccc(NC(=O)c2ccc(NC(=O)C(C)C)cc2)c([N+](=O)[O-])c1,inactive: -19.6%,–

SMILES,max response,Potency
CCOC(=S)SCC(=O)N1CCc2cc(OC)ccc2C1C1C(=O)CCCC1=O (stereo not drawn),–,"inconclusive: 5.59 µM [inhibitor, partial curve]"
Cc1ccc(-c2nc3ccccc3o2)cc1NC(=S)NC(=O)/C=C/c1ccco1,–,"inconclusive: 5.59 µM [inhibitor, partial curve]"
COc1ccc(NC(=O)C2Cc3c(-c4cccc(C(C)=O)c4)ccnc3O2)cc1 (stereo not drawn),–,"inconclusive: 1.98 µM [inhibitor, full curve]"
COC(=O)COc1cccc2c(=O)n(CC(=O)NCc3ccccc3)ccc12,–,"inconclusive: 2.23 µM [inhibitor, full curve]"
C(=C\c1c[nH]c2ccccc12)/c1nccc2ccccc12,–,active: 10.3 µM
CCCOc1ccc(C(=O)Nc2cccc(NC(=O)c3ccc(Cl)cc3Cl)c2)cc1,–,active: 16.4 µM
N=C1C(c2nc3ccccc3[nH]2)=C(O)CN1c1ccccc1,–,"inconclusive: 14 µM [inhibitor, single point]"
COc1ccc(-c2cnnc(N/N=C/c3ccc(O)c(OC)c3)n2)cc1,–,"inconclusive: 7.04 µM [inhibitor, partial curve]"
Cc1ccc(C(=O)c2cc([N+](=O)[O-])ccc2N2CCOCC2)cc1C,–,"inconclusive: 0.994 µM [inhibitor, full curve, poor fit]"
O=C1/C(=C\c2ccc(O)cc2)SC(=S)N1Cc1ccccc1,inactive: -2.14%,–
O=[N+]([O-])c1ccc(N=Nc2ccc(O)c3ccccc23)cc1,–,"inconclusive: 22.3 µM [inhibitor, single point]"
COc1ccc(/C=C2\CN(Cc3ccccc3)C/C(=C\c3ccc(OC)c(O)c3)C2=O)cc1O,–,"inconclusive: 5.59 µM [inhibitor, partial curve]"
CCn1c(/C=C/c2ccc([N+](=O)[O-])o2)nc2ccccc2c1=O,–,active: 3.26 µM
COc1ccc(C2=CC(c3ccc(N(C)C)cc3)n3nnnc3N2)cc1 (stereo not drawn),inactive: -6.88%,–
CC(=O)Nc1ccc(S(=O)(=O)N2c3ccccc3C(C)=CC2(C)C)cc1,–,"inconclusive: 1.25 µM [inhibitor, full curve, poor fit]"
COc1ccccc1-c1cc(NC=O)c2ncc(-c3cccc(C(=O)N(C)C)c3)n2c1,–,"inconclusive: 17.7 µM [inhibitor, single point]"
CN(C)c1ccc(/C=C/C(=O)c2ccc(O)cc2)cc1,–,"inconclusive: 6.51 µM [inhibitor, single point]"
CCSc1nc2ccccc2n1C(=O)/C=C/c1ccc(OC)c(OC)c1,–,"inconclusive: 14 µM [inhibitor, single point]"
CCNc1ccc(Br)cc(C(=O)/C=C/c2ccccc2Cl)c1=O,–,"inconclusive: 25 µM [inhibitor, single point]"
COc1ccc(-n2nnnc2-c2ccccc2)cc1,–,"inconclusive: 1.77 µM [inhibitor, full curve]"
CC1CC(C)CN(CC(=O)c2c[nH]c3ccccc23)C1 (stereo not drawn),–,"inconclusive: 29.1 µM [inhibitor, single point]"
Cc1cccc(Nc2nnc(SC/C(O)=C(\C#N)c3nc4ccccc4[nH]3)s2)c1,–,"inconclusive: 18.4 µM [inhibitor, single point]"
